The values that follow come from doi:10.1101/2022.03.16.484629.

Read-outs that look alike come from different tables or passages of the source. Results are given in words; binding and its absence hold for the method and conditions named. In cells and extracts the contact can be indirect. Here binding means that the protein was enriched with, or labelled near, the bait; the list need not be complete.

The target in experiment [1] is T1, α-1 syntrophin (SNTA1) (human (endogenous in MCF-7)) (UniProt Q13424).
T1 sequence: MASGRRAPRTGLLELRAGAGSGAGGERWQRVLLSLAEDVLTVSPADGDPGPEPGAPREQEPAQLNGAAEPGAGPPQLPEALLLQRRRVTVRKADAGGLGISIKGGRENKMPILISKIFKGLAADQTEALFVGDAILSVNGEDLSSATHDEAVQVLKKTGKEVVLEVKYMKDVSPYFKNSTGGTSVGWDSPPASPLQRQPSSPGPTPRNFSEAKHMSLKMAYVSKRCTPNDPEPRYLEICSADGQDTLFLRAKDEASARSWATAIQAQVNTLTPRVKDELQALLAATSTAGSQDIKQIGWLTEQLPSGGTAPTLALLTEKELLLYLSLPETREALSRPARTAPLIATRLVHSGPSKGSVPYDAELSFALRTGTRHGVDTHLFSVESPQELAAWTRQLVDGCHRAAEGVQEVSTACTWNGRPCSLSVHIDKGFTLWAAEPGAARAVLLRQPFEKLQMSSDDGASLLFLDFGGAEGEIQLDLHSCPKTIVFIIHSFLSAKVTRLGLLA
Briefly: affinity purification with mass spectrometry.

Experiment [2] concerns the target T1, α-1 syntrophin (SNTA1) (human (endogenous in MCF-7)). The experiment is described as follows: affinity purification with mass spectrometry. The source holds these as a separate data set.

Turning to “HSP90 ALPHA isoform I (from UniProt P07900-2 1-854)”, the binding result in experiment [1] and in experiment [2] was “binds” throughout.
